Experimental data as given in paper PMC7670567.
These are yes or no findings as the source states them, for the method shown. For some assays here: In cells and extracts the contact can be indirect. Some results given as binding are weak or reduced against the parent protein; the word gives no strength. For some assays here: Where a sequence is shown, tags or fusion partners need not be part of it.

Sequences of proteins named here, by UniProt entry; tags and fusion partners are left off.
UniProt O43491: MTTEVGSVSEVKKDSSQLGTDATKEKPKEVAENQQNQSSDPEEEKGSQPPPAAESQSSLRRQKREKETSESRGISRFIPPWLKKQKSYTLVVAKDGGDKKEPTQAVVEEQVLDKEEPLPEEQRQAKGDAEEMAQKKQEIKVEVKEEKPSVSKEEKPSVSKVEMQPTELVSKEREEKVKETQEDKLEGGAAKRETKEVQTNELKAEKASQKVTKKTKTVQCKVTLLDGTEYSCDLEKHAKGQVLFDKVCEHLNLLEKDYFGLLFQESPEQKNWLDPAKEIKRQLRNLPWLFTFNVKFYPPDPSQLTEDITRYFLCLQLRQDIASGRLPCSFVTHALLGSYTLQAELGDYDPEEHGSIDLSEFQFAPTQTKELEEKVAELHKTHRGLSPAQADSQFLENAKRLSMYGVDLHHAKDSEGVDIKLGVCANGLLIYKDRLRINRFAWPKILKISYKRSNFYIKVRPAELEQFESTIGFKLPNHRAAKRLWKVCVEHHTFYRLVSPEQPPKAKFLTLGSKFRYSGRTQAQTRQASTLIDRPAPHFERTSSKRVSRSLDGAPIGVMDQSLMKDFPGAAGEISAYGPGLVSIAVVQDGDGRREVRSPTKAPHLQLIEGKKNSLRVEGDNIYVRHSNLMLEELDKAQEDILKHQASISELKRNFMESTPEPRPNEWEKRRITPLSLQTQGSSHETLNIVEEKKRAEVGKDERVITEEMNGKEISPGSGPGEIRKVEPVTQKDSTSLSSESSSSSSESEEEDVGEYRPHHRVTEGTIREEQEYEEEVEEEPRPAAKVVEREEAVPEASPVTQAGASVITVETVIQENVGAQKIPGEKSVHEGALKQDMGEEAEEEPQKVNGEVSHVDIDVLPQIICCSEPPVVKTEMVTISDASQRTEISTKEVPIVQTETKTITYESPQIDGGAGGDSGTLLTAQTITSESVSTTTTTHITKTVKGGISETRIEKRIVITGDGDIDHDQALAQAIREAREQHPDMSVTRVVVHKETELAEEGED
UniProt Q12955: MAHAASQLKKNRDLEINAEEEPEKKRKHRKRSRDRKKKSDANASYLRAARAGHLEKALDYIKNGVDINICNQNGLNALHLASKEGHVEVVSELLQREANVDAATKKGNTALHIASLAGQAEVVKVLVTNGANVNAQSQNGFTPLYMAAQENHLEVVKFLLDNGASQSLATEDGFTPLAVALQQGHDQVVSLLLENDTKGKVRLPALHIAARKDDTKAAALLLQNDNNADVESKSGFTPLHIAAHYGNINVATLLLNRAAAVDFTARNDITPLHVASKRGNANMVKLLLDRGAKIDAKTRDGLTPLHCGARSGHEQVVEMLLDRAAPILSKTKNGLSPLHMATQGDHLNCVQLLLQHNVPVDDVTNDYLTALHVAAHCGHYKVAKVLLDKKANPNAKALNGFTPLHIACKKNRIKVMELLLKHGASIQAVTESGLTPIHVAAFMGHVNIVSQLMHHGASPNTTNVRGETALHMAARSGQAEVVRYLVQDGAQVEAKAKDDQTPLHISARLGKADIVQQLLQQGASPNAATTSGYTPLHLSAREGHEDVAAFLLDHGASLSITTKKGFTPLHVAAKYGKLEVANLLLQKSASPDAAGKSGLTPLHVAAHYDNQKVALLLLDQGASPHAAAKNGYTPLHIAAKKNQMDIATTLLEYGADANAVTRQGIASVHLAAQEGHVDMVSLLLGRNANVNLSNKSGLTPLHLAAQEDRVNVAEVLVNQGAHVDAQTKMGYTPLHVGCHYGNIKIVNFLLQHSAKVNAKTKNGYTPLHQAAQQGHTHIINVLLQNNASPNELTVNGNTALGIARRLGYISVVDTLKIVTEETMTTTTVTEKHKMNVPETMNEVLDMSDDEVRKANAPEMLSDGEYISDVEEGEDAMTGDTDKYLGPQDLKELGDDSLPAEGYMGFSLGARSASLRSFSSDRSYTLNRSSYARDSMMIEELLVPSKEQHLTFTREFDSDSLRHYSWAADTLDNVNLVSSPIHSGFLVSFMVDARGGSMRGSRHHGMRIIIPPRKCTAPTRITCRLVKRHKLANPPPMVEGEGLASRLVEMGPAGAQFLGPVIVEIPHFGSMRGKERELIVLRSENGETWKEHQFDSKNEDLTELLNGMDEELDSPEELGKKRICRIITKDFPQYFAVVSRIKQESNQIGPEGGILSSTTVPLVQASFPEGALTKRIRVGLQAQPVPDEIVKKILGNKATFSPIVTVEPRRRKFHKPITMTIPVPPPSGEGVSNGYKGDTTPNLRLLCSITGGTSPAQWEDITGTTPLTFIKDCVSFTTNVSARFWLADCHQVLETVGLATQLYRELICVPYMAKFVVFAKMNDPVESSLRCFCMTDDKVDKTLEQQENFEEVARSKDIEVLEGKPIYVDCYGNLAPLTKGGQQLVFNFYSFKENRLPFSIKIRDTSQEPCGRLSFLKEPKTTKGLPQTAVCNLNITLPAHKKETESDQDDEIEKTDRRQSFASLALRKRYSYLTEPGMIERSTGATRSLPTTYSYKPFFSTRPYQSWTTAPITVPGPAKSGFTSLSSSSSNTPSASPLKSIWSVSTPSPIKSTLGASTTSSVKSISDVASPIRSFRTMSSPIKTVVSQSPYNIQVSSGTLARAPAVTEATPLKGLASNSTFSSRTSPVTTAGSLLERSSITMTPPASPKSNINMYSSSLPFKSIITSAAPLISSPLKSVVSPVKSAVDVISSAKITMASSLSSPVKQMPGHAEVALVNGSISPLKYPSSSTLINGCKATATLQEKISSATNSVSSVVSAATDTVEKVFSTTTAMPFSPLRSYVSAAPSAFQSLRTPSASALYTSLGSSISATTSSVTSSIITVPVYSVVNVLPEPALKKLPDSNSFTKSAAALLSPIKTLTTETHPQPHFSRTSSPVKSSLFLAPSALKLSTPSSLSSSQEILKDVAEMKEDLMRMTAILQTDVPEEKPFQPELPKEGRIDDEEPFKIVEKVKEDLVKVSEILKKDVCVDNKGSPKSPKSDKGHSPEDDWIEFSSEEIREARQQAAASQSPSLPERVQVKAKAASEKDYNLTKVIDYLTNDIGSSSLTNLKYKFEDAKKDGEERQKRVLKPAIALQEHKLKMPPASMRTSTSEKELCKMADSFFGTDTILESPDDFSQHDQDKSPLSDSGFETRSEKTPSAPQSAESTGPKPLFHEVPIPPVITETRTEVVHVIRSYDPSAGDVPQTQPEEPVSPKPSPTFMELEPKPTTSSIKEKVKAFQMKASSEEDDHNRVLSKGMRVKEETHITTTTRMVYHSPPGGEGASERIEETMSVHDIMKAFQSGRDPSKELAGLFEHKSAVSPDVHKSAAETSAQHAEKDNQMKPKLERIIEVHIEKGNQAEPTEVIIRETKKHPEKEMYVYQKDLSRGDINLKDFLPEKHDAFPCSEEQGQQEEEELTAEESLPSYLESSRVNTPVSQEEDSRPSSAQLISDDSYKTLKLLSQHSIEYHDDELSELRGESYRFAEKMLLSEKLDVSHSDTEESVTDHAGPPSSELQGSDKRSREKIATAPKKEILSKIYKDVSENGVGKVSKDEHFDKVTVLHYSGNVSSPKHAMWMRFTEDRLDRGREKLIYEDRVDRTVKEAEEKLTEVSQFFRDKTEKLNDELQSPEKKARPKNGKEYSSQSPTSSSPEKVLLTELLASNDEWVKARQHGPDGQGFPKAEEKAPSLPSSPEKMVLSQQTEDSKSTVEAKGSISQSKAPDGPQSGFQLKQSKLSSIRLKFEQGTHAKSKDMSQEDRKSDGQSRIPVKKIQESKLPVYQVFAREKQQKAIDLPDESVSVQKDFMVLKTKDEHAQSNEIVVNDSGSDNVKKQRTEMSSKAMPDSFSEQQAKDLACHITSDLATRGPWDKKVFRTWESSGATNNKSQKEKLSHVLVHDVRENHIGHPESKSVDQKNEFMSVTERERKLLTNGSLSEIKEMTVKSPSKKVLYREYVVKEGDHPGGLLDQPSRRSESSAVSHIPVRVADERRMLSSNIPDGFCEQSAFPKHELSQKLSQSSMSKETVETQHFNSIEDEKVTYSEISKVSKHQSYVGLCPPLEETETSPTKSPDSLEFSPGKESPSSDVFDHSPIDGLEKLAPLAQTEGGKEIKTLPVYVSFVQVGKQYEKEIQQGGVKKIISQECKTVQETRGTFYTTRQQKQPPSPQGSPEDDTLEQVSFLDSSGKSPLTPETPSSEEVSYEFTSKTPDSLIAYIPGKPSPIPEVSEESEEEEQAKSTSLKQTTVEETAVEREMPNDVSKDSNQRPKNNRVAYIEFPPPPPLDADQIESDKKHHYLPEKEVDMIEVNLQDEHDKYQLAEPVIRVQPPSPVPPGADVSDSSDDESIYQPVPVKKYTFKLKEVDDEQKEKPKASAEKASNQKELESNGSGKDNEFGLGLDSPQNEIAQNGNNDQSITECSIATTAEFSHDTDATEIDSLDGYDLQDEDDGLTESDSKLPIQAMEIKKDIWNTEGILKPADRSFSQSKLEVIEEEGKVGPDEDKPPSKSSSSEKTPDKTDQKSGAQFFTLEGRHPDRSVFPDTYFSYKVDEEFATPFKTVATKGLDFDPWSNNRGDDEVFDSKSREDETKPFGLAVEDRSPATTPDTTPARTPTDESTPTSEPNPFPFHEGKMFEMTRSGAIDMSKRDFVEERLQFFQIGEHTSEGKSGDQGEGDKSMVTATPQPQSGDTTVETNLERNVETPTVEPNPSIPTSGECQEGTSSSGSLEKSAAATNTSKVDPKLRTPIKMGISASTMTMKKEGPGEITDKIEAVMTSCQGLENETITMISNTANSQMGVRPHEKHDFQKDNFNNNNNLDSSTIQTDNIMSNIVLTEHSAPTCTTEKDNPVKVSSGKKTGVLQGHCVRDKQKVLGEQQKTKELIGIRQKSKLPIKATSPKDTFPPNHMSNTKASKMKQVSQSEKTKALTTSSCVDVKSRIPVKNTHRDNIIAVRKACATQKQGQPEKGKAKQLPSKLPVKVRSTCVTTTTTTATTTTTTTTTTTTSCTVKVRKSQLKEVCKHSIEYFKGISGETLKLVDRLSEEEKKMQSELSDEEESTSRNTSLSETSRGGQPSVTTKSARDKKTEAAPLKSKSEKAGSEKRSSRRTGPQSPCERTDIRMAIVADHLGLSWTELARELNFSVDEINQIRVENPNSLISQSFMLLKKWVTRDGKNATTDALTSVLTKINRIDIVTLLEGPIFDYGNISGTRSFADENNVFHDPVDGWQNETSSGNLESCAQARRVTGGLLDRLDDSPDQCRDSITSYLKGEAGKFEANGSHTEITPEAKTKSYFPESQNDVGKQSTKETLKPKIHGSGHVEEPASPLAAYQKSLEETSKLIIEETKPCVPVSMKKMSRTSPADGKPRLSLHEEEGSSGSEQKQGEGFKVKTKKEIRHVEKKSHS
UniProt Q15327: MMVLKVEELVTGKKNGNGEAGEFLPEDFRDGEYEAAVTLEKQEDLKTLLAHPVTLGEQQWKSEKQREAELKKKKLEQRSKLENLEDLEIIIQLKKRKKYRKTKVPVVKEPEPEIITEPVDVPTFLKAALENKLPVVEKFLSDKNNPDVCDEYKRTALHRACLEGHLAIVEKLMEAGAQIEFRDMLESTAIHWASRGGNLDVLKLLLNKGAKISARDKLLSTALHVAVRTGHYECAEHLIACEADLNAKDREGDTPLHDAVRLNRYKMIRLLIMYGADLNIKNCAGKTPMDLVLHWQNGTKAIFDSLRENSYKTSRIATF
UniProt O00571: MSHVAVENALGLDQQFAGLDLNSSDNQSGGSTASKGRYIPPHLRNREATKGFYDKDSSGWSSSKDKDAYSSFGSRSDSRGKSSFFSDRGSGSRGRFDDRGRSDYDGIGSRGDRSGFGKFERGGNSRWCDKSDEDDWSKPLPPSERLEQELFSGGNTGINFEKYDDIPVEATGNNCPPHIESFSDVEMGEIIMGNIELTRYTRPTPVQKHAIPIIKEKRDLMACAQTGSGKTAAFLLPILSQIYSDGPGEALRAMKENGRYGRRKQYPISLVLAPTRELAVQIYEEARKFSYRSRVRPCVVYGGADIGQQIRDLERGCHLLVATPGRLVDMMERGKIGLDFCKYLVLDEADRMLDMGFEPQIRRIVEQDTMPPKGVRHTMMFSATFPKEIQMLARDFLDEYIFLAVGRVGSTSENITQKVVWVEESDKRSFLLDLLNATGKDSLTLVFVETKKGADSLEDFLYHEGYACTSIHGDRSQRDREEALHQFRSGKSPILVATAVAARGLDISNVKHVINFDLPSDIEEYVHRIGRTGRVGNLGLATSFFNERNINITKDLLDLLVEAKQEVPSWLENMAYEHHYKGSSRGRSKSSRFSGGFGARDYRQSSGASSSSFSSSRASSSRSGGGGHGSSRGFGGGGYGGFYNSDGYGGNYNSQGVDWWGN

B1: SLC25A11, tagged construct (protein, UniProt Q02978 1-314)
chain: MAATASAGAGGIDGKPRTSPKSVKFLFGGLAGMGATVFVQPLDLVKNRMQLSGEGAKTREYKTSFHALTSILKAEGLRGIYTGLSAGLLRQATYTTTRLGIYTVLFERLTGADGTPPGFLLKAVIGMTAGATGAFVGTPAEVALIRMTADGRLPADQRRGYKNVFNALIRITREEGVLTLWRGCIPTMARAVVVNAAQLASYSQSKQFLLDSGYFSDNILCHFCASMISGLVTTAASMPVDIAKTRIQNMRMIDGKPEYKNGLDVLFKVVRYEGFFSLWKGFTPYYARLGPHTVLTFIFLEQMNKAYKRLFLSG
B2: Aurora A kinase (AURKA), expression construct (protein, UniProt O14965 1-403)
chain: MDRSKENCISGPVKATAPVGGPKRVLVTQQFPCQNPLPVNSGQAQRVLCPSNSSQRIPLQAQKLVSSHKPVQNQKQKQLQATSVPHPVSRPLNNTQKSKQPLPSAPENNPEEELASKQKNEESKKRQWALEDFEIGRPLGKGKFGNVYLAREKQSKFILALKVLFKAQLEKAGVEHQLRREVEIQSHLRHPNILRLYGYFHDATRVYLILEYAPLGTVYRELQKLSKFDEQRTATYITELANALSYCHSKRVIHRDIKPENLLLGSAGELKIADFGWSVHAPSSRRTTLCGTLDYLPPEMIEGRMHDEKVDLWSLGVLCYEFLVGKPPFEANTYQETYKRISRVEFTFPDFVTEGARDLISRLLKHNPSQRPMLREVLEHPWITANSSKPSNCQNKESASKQS
B3: crystallin, α B (CRYAB), tagged construct (protein, UniProt P02511 1-175)
chain: MDIAIHHPWIRRPFFPFHSPSRLFDQFFGEHLLESDLFPTSTSLSPFYLRPPSFLRAPSWFDTGLSEMRLEKDRFSVNLDVKHFSPEELKVKVLGDVIEVHGKHEERQDEHGFISREFHRKYRIPADVDPLTITSSLSSDGVLTVNGPRKQVSGPERTIPITREEKPAVTAAPKK
B4: SLC25A13, tagged construct (protein, UniProt Q9UJS0 1-675)
chain: MAAAKVALTKRADPAELRTIFLKYASIEKNGEFFMSPNDFVTRYLNIFGESQPNPKTVELLSGVVDQTKDGLISFQEFVAFESVLCAPDALFMVAFQLFDKAGKGEVTFEDVKQVFGQTTIHQHIPFNWDSEFVQLHFGKERKRHLTYAEFTQFLLEIQLEHAKQAFVQRDNARTGRVTAIDFRDIMVTIRPHVLTPFVEECLVAAAGGTTSHQVSFSYFNGFNSLLNNMELIRKIYSTLAGTRKDVEVTKEEFVLAAQKFGQVTPMEVDILFQLADLYEPRGRMTLADIERIAPLEEGTLPFNLAEAQRQKASGDSARPVLLQVAESAYRFGLGSVAGAVGATAVYPIDLVKTRMQNQRSTGSFVGELMYKNSFDCFKKVLRYEGFFGLYRGLLPQLLGVAPEKAIKLTVNDFVRDKFMHKDGSVPLAAEILAGGCAGGSQVIFTNPLEIVKIRLQVAGEITTGPRVSALSVVRDLGFFGIYKGAKACFLRDIPFSAIYFPCYAHVKASFANEDGQVSPGSLLLAGAIAGMPAASLVTPADVIKTRLQVAARAGQTTYSGVIDCFRKILREEGPKALWKGAGARVFRSSPQFGVTLLTYELLQRWFYIDFGGVKPMGSEPVPKSRINLPAPNPDHVGGYKLAVATFAGIENKFGLYLPLFKPSVSTSKAIGGGP
B5: FEZ1, two-hybrid fusion (protein, UniProt Q99689 1-392)
chain: MEAPLVSLDEEFEDLRPSCSEDPEEKPQCFYGSSPHHLEDPSLSELENFSSEIISFKSMEDLVNEFDEKLNVCFRNYNAKTENLAPVKNQLQIQEEEETLQDEEVWDALTDNYIPSLSEDWRDPNIEALNGNCSDTEIHEKEEEEFNEKSENDSGINEEPLLTADQVIEEIEEMMQNSPDPEEEEEVLEEEDGGETSSQADSVLLQEMQALTQTFNNNWSYEGLRHMSGSELTELLDQVEGAIRDFSEELVQQLARRDELEFEKEVKNSFITVLIEVQNKQKEQRELMKKRRKEKGLSLQSSRIEKGNQMPLKRFSMEGISNILQSGIRQTFGSSGTDKQYLNTVIPYEKKASPPSVEDLQMLTNILFAMKEDNEKVPTLLTDYILKVLCPT
B6: PDZK8, two-hybrid fusion (protein, UniProt Q8NEN9 1-1154)
chain: MGLLLMILASAVLGSFLTLLAQFFLLYRRQPEPPADEAARAGEGFRYIKPVPGLLLREYLYGGGRDEEPSGAAPEGGATPTAAPETPAPPTRETCYFLNATILFLFRELRDTALTRRWVTKKIKVEFEELLQTKTAGRLLEGLSLRDVFLGETVPFIKTIRLVRPVVPSATGEPDGPEGEALPAACPEELAFEAEVEYNGGFHLAIDVDLVFGKSAYLFVKLSRVVGRLRLVFTRVPFTHWFFSFVEDPLIDFEVRSQFEGRPMPQLTSIIVNQLKKIIKRKHTLPNYKIRFKPFFPYQTLQGFEEDEEHIHIQQWALTEGRLKVTLLECSRLLIFGSYDREANVHCTLELSSSVWEEKQRSSIKTVELIKGNLQSVGLTLRLVQSTDGYAGHVIIETVAPNSPAAIADLQRGDRLIAIGGVKITSTLQVLKLIKQAGDRVLVYYERPVGQSNQGAVLQDNFGQLEENFLSSSCQSGYEEEAAGLTVDTESRELDSEFEDLASDVRAQNEFKDEAQSLSHSPKRVPTTLSIKPLGAISPVLNRKLAVGSHPLPPKIQSKDGNKPPPLKTSEITDPAQVSKPTQGSAFKPPVPPRPQAKVPLPSADAPNQAEPDVLVEKPEKVVPPPLVDKSAEKQAKNVDAIDDAAAPKQFLAKQEVAKDVTSETSCPTKDSSDDRQTWESSEILYRNKLGKWTRTRASCLFDIEACHRYLNIALWCRDPFKLGGLICLGHVSLKLEDVALGCLATSNTEYLSKLRLEAPSPKAIVTRTALRNLSMQKGFNDKFCYGDITIHFKYLKEGESDHHVVTNVEKEKEPHLVEEVSVLPKEEQFVGQMGLTENKHSFQDTQFQNPTWCDYCKKKVWTKAASQCMFCAYVCHKKCQEKCLAETSVCGATDRRIDRTLKNLRLEGQETLLGLPPRVDAEASKSVNKTTGLTRHIINTSSRLLNLRQVSKTRLSEPGTDLVEPSPKHTPNTSDNEGSDTEVCGPNSPSKRGNSTGIKLVRKEGGLDDSVFIAVKEIGRDLYRGLPTEERIQKLEFMLDKLQNEIDQELEHNNSLVREEKETTDTRKKSLLSAALAKSGERLQALTLLMIHYRAGIEDIETLESLSLDQHSKKISKYTDDTEEDLDNEISQLIDSQPFSSISDDLFGPSESV
B7: RAI14, two-hybrid fusion (protein, UniProt Q9P0K7 1-980)
chain: MKSLKAKFRKSDTNEWNKNDDRLLQAVENGDAEKVASLLGKKGASATKHDSEGKTAFHLAAAKGHVECLRVMITHGVDVTAQDTTGHSALHLAAKNSHHECIRKLLQSKCPAESVDSSGKTALHYAAAQGCLQAVQILCEHKSPINLKDLDGNIPLLLAVQNGHSEICHFLLDHGADVNSRNKSGRTALMLACEIGSSNAVEALIKKGADLNLVDSLGYNALHYSKLSENAGIQSLLLSKISQDADLKTPTKPKQHDQVSKISSERSGTPKKRKAPPPPISPTQLSDVSSPRSITSTPLSGKESVFFAEPPFKAEISSIRENKDRLSDSTTGADSLLDISSEADQQDLLSLLQAKVASLTLHNKELQDKLQAKSPKEAEADLSFDSYHSTQTDLGPSLGKPGETSPPDSKSSPSVLIHSLGKSTTDNDVRIQQLQEILQDLQKRLESSEAERKQLQVELQSRRAELVCLNNTEISENSSDLSQKLKETQSKYEEAMKEVLSVQKQMKLGLVSPESMDNYSHFHELRVTEEEINVLKQDLQNALEESERNKEKVRELEEKLVEREKGTVIKPPVEEYEEMKSSYCSVIENMNKEKAFLFEKYQEAQEEIMKLKDTLKSQMTQEASDEAEDMKEAMNRMIDELNKQVSELSQLYKEAQAELEDYRKRKSLEDVTAEYIHKAEHEKLMQLTNVSRAKAEDALSEMKSQYSKVLNELTQLKQLVDAQKENSVSITEHLQVITTLRTAAKEMEEKISNLKEHLASKEVEVAKLEKQLLEEKAAMTDAMVPRSSYEKLQSSLESEVSVLASKLKESVKEKEKVHSEVVQIRSEVSQVKREKENIQTLLKSKEQEVNELLQKFQQAQEELAEMKRYAESSSKLEEDKDKKINEMSKEVTKLKEALNSLSQLSYSTSSSKRQSQQLEALQQQVKQLQNQLAECKKQHQEVISVYRMHLLYAVQGQMDEDVQKVLKQILTMCKNQSQKK

biological target: HCLS1-associated protein X-1 (HAX1), yeast two-hybrid baits and prey clones (human) (UniProt O00165); assay: two-hybrid; automated high-throughput yeast two-hybrid system (Myrexis); 27 HAX1 baits screened, HAX1 also prey from 21 baits; nine libraries (brain, substantia nigra, hypothalamus, hippocampus, spleen, liver, colon, testis, breast cancer/prostate cancer)

binding	Molecule
binds	EPB41L2, two-hybrid fusion (from UniProt O43491 1-1005)
binds	ANK2, two-hybrid fusion (from UniProt Q01484 1-3957)
binds	ANK3, two-hybrid fusion (from UniProt Q12955 1-4377)
binds	ANKRD1, two-hybrid fusion (from UniProt Q15327 1-319)
binds	DAAM1, two-hybrid fusion (from UniProt Q9Y4D1 1-1078)

biological target: tagged HAX1 (whole HAX1) (UniProt O00165); assay: co-IP; HeLa cells co-transfected with tagged HAX1 and the tagged partner, lysed 24 h later in NP-40 buffer (10 mM Tris/Cl pH 7.5, 150 mM NaCl, 0.5 mM EDTA, 0.5% Nonidet P40); anti-FLAG M2 beads, anti-c-Myc magnetic beads or GFP-trap; Western blot

binding	Molecule
binds	DDX3X RNA helicase, FLAG-tagged construct (from UniProt O00571 1-662)
binds	sequestosome (SQSTM1), GFP construct (from UniProt Q13501 1-440)

biological target: tagged HAX1 (whole HAX1) (UniProt O00165); assay: as above; remark: another data set of the same source

binding	Molecule
binds	B1
binds	B2
no binding	B3
binds	B4

biological target: HCLS1-associated protein X-1 (HAX1), yeast two-hybrid baits and prey clones (human) (UniProt O00165); assay: two-hybrid; automated high-throughput yeast two-hybrid system (Myrexis); 27 HAX1 baits screened, HAX1 also prey from 21 baits; nine libraries (brain, substantia nigra, hypothalamus, hippocampus, spleen, liver, colon, testis, breast cancer/prostate cancer); remark: another data set of the same source

binding	Molecule
binds	B5
binds	B6
binds	B7
